# The other results are listed elsewhere or left out.
# Amino acid sequences for entries named in this document (tags omitted). A change or cut given only in a name is not applied to a line headed by its entry.
# UniProt Q8TCE6, whole entry, looked up: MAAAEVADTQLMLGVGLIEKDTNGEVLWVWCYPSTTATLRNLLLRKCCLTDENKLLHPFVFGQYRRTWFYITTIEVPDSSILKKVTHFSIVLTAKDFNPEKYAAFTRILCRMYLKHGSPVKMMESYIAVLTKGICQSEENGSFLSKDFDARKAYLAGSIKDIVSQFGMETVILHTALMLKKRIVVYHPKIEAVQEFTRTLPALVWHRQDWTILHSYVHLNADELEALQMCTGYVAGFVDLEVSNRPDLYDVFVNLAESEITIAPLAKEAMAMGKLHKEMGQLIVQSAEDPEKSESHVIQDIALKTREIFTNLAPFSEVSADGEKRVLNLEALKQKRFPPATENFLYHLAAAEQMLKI
# UniProt Q9NWV4: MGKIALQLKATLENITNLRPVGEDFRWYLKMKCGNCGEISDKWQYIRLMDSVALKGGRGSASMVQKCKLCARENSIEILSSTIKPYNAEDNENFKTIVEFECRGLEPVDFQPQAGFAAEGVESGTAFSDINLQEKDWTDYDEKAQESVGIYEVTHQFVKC
# UniProt Q9NUU7: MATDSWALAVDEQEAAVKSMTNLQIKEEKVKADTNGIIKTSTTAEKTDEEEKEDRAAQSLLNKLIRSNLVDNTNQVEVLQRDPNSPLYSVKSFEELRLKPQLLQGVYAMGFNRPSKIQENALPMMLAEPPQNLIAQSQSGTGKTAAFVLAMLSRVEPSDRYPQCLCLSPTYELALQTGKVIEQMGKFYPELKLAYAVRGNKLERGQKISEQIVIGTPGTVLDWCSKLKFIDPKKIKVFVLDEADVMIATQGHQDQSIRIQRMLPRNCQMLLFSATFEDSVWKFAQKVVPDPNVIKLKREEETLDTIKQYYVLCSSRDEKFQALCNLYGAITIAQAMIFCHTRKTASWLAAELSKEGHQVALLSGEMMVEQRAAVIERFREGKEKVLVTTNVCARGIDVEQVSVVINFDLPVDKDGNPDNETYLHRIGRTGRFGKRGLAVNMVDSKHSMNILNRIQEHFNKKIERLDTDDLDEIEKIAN
# UniProt Q92499: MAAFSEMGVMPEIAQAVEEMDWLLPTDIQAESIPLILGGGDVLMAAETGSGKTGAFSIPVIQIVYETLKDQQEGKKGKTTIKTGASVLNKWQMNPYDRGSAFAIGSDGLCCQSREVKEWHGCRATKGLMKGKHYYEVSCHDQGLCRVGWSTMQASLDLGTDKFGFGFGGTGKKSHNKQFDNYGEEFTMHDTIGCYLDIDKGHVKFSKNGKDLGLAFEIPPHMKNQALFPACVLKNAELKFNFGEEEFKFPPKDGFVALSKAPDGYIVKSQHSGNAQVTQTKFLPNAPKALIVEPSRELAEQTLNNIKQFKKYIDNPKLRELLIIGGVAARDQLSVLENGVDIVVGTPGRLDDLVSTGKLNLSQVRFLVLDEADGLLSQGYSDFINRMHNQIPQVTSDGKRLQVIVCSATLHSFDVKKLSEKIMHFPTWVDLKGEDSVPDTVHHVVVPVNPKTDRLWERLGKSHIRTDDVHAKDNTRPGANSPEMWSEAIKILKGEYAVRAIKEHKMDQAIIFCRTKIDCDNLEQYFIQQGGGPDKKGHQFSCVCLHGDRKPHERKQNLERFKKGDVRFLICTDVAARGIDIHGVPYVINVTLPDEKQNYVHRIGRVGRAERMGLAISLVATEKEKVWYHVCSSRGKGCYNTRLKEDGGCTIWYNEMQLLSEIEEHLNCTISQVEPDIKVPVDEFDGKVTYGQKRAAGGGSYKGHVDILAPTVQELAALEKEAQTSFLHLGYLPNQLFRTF
# UniProt Q8NEL9: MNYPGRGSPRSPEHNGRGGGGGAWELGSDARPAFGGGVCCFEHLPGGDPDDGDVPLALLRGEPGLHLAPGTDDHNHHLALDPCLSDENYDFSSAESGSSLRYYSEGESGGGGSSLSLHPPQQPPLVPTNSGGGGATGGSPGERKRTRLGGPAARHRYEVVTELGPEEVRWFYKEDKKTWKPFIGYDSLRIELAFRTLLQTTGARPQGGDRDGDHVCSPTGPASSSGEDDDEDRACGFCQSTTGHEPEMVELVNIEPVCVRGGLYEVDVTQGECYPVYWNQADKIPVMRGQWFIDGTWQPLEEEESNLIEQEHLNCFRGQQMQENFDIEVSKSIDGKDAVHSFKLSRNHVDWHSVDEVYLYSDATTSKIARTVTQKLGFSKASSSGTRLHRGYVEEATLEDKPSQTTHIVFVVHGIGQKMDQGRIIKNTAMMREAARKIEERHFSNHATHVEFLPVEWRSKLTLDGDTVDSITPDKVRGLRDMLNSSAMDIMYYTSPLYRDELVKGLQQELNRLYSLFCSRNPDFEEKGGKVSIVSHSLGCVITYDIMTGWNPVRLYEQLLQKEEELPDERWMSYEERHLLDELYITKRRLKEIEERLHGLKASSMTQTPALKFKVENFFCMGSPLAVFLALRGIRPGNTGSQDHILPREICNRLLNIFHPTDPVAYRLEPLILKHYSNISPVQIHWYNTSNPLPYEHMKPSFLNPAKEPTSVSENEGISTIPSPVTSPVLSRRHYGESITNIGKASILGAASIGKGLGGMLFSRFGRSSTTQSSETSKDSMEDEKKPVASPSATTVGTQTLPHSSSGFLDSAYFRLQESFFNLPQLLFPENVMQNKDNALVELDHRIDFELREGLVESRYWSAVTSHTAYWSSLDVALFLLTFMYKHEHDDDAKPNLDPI
# UniProt Q9H1C7: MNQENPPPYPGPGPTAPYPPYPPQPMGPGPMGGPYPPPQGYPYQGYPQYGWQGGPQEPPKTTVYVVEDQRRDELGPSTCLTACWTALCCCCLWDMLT
# UniProt P17661, whole entry, looked up: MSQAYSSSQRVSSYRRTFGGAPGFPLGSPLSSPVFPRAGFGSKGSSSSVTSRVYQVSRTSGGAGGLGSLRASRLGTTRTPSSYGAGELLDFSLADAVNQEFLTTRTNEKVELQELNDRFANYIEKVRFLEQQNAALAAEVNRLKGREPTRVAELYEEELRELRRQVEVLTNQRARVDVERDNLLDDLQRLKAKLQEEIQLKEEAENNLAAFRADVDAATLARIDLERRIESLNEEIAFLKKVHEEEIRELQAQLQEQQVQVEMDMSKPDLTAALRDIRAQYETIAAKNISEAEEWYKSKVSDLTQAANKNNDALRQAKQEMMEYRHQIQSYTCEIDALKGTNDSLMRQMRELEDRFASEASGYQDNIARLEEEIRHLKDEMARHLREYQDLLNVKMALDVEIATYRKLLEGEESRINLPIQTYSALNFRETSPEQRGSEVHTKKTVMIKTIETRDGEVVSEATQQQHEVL
# UniProt Q9NVP1: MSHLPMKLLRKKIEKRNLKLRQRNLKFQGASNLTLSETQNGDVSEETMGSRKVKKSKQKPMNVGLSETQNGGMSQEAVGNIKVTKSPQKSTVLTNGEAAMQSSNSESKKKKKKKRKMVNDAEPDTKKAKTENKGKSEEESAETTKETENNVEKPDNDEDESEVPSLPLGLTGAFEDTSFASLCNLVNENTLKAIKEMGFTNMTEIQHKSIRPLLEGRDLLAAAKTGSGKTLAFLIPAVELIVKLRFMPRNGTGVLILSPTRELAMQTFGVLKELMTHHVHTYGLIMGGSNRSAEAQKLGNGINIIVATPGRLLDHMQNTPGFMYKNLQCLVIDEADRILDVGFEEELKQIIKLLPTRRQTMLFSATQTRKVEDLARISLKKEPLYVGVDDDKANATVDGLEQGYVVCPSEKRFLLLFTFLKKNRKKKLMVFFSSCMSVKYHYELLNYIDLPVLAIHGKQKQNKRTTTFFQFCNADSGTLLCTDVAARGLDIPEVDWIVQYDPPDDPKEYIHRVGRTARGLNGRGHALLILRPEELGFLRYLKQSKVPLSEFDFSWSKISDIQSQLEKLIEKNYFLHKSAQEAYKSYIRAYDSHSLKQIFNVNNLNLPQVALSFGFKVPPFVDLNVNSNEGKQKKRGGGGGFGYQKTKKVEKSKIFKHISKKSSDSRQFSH
# UniProt Q13206, whole entry, looked up: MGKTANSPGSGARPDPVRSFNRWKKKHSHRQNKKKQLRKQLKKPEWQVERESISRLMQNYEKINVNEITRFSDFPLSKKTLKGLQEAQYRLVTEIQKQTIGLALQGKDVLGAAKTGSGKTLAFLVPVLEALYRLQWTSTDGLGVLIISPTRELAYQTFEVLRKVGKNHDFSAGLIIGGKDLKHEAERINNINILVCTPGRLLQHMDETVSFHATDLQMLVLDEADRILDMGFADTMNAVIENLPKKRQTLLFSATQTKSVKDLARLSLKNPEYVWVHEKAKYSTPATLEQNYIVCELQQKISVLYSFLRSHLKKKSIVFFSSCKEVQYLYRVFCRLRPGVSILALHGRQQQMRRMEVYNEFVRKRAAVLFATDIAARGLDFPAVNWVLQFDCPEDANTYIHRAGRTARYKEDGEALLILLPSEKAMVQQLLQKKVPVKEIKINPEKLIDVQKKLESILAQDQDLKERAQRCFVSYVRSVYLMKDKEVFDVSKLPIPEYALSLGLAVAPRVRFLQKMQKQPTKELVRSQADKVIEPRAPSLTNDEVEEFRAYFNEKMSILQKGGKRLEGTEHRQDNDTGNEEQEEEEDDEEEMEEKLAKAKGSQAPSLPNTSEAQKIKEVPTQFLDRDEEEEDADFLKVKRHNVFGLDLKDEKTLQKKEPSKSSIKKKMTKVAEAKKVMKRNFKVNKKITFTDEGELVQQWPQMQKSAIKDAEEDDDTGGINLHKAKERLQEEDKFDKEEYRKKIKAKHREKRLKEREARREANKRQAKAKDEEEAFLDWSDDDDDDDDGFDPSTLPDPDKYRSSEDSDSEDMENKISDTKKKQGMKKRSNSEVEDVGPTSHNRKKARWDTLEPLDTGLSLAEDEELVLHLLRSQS
# UniProt Q5TDH0: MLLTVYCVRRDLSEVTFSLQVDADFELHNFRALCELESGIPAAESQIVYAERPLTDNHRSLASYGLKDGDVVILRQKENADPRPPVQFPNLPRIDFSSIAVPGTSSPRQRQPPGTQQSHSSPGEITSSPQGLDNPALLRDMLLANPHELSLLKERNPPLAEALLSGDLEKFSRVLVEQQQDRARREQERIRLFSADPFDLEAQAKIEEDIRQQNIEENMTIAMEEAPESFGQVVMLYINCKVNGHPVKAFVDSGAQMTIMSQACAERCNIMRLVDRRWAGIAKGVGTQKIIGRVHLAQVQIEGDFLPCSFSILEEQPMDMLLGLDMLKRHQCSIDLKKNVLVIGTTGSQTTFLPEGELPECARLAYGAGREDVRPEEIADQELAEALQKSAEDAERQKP
# UniProt Q96HY6: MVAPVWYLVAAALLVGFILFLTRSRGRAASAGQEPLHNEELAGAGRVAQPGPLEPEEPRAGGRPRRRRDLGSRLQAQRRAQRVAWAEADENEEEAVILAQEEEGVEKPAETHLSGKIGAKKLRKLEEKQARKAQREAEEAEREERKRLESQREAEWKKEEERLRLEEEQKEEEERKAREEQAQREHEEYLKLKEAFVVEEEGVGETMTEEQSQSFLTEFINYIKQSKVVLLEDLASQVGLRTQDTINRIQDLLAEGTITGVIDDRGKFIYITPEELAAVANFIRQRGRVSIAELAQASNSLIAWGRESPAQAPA
# UniProt Q96GG9: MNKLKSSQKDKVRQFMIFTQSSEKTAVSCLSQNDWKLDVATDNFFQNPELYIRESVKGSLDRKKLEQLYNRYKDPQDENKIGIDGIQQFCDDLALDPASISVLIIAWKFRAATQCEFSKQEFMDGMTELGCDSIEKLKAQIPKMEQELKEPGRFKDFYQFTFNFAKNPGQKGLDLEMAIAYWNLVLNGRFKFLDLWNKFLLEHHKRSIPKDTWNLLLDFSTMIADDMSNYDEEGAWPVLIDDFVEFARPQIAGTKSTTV
# UniProt Q9H8H2: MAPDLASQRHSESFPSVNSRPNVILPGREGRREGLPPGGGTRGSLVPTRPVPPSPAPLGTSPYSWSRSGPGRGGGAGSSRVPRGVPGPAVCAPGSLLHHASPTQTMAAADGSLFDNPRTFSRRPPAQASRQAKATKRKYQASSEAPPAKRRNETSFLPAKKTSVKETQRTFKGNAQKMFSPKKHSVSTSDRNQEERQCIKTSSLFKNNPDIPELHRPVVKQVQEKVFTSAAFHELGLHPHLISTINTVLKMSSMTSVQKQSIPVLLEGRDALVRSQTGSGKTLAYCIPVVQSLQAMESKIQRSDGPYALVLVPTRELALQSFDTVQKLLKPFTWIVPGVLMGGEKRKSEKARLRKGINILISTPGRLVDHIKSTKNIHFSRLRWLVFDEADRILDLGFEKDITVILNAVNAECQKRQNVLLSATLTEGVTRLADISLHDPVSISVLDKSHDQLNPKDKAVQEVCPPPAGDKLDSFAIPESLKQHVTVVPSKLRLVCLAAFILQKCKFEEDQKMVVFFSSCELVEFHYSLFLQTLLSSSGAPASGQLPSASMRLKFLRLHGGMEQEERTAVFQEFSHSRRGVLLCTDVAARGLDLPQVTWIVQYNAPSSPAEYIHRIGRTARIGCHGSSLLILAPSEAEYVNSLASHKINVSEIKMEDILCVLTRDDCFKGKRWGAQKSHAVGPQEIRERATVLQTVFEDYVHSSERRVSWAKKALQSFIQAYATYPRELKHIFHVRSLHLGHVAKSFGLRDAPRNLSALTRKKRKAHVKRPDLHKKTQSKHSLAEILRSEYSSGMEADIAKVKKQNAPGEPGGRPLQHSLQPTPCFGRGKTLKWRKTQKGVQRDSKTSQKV
# Legend:
# Assay in all cases: log2 fold change, soluble protein after heating vs DMSO (PISA); higher = thermal stabilisation; K562 lysate, 10 uM; active = over 0.2 and 3.5 SD of the protein, either way, in both replicates (recomputed)
# [1] = compound: CCCS(=O)(=O)Nc1ccc(F)c(C(=O)c2c[nH]c3ncc(-c4ccc(Cl)cc4)cc23)c1F [vemurafenib]
# How it was run: (§1)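 To prepare the extract, K562 pellets were dounce-homogenised in PBS pH 7.4 with 1 mM MgCl2, giving crude material at 1 mg/mL protein. This was treated with 10 μM compound for 30 min, then heated in aliquots for 3 min over 48°C-58°C before pooling and addition of NP-40 to 0.5% at 4°C. Centrifugation at 21,000xg for 90 min left soluble protein in the supernatant, which TMTpro 16plex LC-MS/MS quantified with equalised channel sums. Results are log-two fold changes in thermal stability compared with solvent controls, from duplicates.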
# [2] = compound: CCCS(=O)(=O)Nc1ccc(F)c(C(=O)c2c[nH]c3ncc(Cl)cc23)c1F
# How it was run: as §1
# [3] = compound: CCN(CCCOc1ccc2c(Nc3cc(CC(=O)Nc4cccc(F)c4)[nH]n3)ncnc2c1)CCOP(=O)(O)O [barasertib]
# How it was run: as §1
# [4] = compound: CC[C@@H]1C(=O)N(C)c2cnc(Nc3ccc(C(=O)NC4CCN(C)CC4)cc3OC)nc2N1C1CCCC1
# How it was run: as §1
# [5] = compound: CC[C@@H]1C(=O)N(C)c2cnc(Nc3ccc(C(=O)N[C@H]4CC[C@H](N5CCN(CC6CC6)CC5)CC4)cc3OC)nc2N1C(C)C [volasertib]
# How it was run: as §1
# [6] = compound: CCn1c(C(=O)N(C2CC2)C2CC2)cc2c3c(ncn3C)c(Nc3cc(C)n(C)n3)nc21
# How it was run: as §1
# [7] = compound: CCn1cc(-c2ccnc3[nH]c(-c4cccc(CN(C)C)c4)cc23)c(-c2ccc(NC(=O)N(C)C)cc2)n1
# How it was run: as §1
# [8] = compound: CN1CCC(CNc2ccc3ncc(-c4cccc(OC(F)(F)F)c4)n3n2)CC1
# How it was run: as §1
# [9] = compound: CN1CCN(CCOc2cc(OC3CCOCC3)c3c(Nc4c(Cl)ccc5c4OCO5)ncnc3c2)CC1 [saracatinib]
# How it was run: as §1
# [10] = compound: CN1CCN(c2nc(C3=C(c4c[nH]c5ccccc45)C(=O)NC3=O)c3ccccc3n2)CC1 [sotrastaurin]
# How it was run: as §1
# [11] = compound: CN1CC[C@H](c2c(O)cc(O)c3c(=O)cc(-c4ccccc4Cl)oc23)[C@H](O)C1 [alvocidib]
# How it was run: as §1
# [12] = compound: CN1CCc2c(c3ccccc3n2Cc2ccc(C(=O)NO)cc2)C1 [Tubastatin A]
# How it was run: as §1
# [13] = compound: CNC(=O)C1=CC=CC=C1NC2=NC(=NC=C2Cl)NC3=C(C=C(C=C3)N4CCOCC4)OC
# How it was run: as §1
# [14] = compound: CNC(=O)c1ccc(Nc2ncc(C(F)(F)F)c(NCc3nccnc3N(C)S(C)(=O)=O)n2)cc1 [defactinib]
# How it was run: as §1
# [15] = compound: CNc1nc(-c2ccc3c(N)n[nH]c3c2)cc(N2C[C@@H](C(=O)NC3CCCCC3)CC[C@H]2C)n1
# How it was run: as §1
# [16] = compound: COC(=O)N[C@@H](C)CNc1nccc(-c2cn(C(C)C)nc2-c2cc(Cl)cc(NS(C)(=O)=O)c2F)n1 [encorafenib]
# How it was run: as §1
# [17] = compound: COC(=O)[C@H](CCSC)NC(=O)C1=C(C=C(C=C1)NC[C@H](CS)N)C2=CC=CC=C2
# How it was run: as §1
# [18] = compound: COc1cc(Nc2ncc3c(n2)-c2ccc(Cl)cc2C(c2c(F)cccc2OC)=NC3)ccc1C(=O)O [alisertib]
# How it was run: as §1
# [19] = compound: COc1cc2nc(-c3cc(F)ccc3O)nc(N[C@@H]3CNC[C@H]3C(C)(C)O)c2cc1OC
# How it was run: as §1
# [20] = compound: COc1cc2ncnc(Nc3ccc(F)c(Cl)c3)c2cc1OCCCN1CCOCC1 [gefitinib]
# How it was run: as §1
Target,log2 fold change [1],log2 fold change [2],log2 fold change [3],log2 fold change [4],log2 fold change [5],log2 fold change [6],log2 fold change [7],log2 fold change [8],log2 fold change [9],log2 fold change [10],log2 fold change [11],log2 fold change [12],log2 fold change [13],log2 fold change [14],log2 fold change [15],log2 fold change [16],log2 fold change [17],log2 fold change [18],log2 fold change [19],log2 fold change [20]
DENND10 (UniProt Q8TCE6),inactive: 0.019,inactive: 0.082,inactive: 0.007,inactive: -0.054,inactive: 0,inactive: 0.006,inactive: 0.012,inactive: -0.006,inactive: 0.036,inactive: 0.054,inactive: 0.045,inactive: 0.015,inactive: 0.004,inactive: 0.012,inactive: -0.06,inactive: -0.067,inactive: 0.04,inactive: 0.061,inactive: 0.008,inactive: 0.018
CZIB (UniProt Q9NWV4),inactive: -0.031,inactive: -0.018,inactive: -0.058,inactive: 0.001,inactive: 0.027,inactive: 0.016,inactive: 0.125,inactive: 0.017,inactive: -0.006,inactive: 0.02,inactive: 0.001,inactive: 0.033,inactive: 0.001,inactive: -0.022,inactive: -0.031,inactive: 0,inactive: -0.091,inactive: -0.016,inactive: -0.042,inactive: -0.076
DDX19A (UniProt Q9NUU7),inactive: -0.029,inactive: -0.005,inactive: 0.006,inactive: 0.019,inactive: 0.008,inactive: 0.055,inactive: 0.012,inactive: -0.029,inactive: -0.008,inactive: 0.042,inactive: 0.044,inactive: 0.006,inactive: 0.027,inactive: -0.012,inactive: 0.02,inactive: 0.01,inactive: 0.064,inactive: -0.019,inactive: 0.013,inactive: 0.014
DDX1 (UniProt Q92499),inactive: -0.011,inactive: 0.019,inactive: -0.015,inactive: -0.018,inactive: -0.042,inactive: 0.01,inactive: -0.048,inactive: -0.011,inactive: -0.01,inactive: -0.032,inactive: 0.001,inactive: -0.044,inactive: 0.02,inactive: -0.02,inactive: 0.006,inactive: -0.018,inactive: 0.063,inactive: 0.012,inactive: -0.006,inactive: -0.013
DDHD1 (UniProt Q8NEL9),inactive: 0.071,inactive: 0.019,inactive: -0.005,inactive: 0.049,inactive: 0.056,inactive: 0.061,inactive: -0.032,inactive: 0.039,inactive: 0.077,inactive: 0.064,inactive: -0.046,inactive: -0.111,inactive: -0.05,inactive: -0.067,inactive: 0.001,inactive: 0.051,inactive: -0.059,inactive: 0.055,inactive: 0.016,inactive: -0.068
CYSTM1 (UniProt Q9H1C7),inactive: -0.254,inactive: -0.001,inactive: -0.098,inactive: -0.142,inactive: -0.015,inactive: -0.07,inactive: -0.053,inactive: -0.008,inactive: -0.01,inactive: 0.045,inactive: -0.038,inactive: 0.127,inactive: -0.019,inactive: 0.066,inactive: 0.202,inactive: 0.161,inactive: -0.215,inactive: -0.057,inactive: 0.036,inactive: 0.156
DDX6 (UniProt P26196),inactive: 0.017,inactive: 0.008,inactive: -0.019,inactive: 0.009,inactive: -0.017,inactive: 0.01,inactive: -0.05,inactive: 0.049,inactive: -0.001,inactive: -0.003,inactive: 0.006,inactive: -0.007,inactive: 0.014,inactive: -0.008,inactive: 0.02,inactive: 0.001,inactive: 0.005,inactive: -0.012,inactive: -0.005,inactive: 0.002
DAP3 (UniProt P51398),inactive: -0.031,inactive: 0.021,inactive: 0.019,inactive: 0.033,inactive: -0.026,inactive: 0.01,inactive: -0.016,inactive: -0.063,inactive: 0.017,inactive: -0.028,inactive: 0.026,inactive: -0.006,inactive: 0.004,inactive: 0.013,inactive: 0.055,inactive: -0.017,inactive: 0.016,inactive: -0.002,inactive: 0.01,inactive: -0.009
DES (UniProt P17661),inactive: 0.084,inactive: 0.008,inactive: -0.001,inactive: 0.045,inactive: 0.058,inactive: -0.026,active: -0.434,inactive: 0.149,inactive: 0.106,inactive: -0.012,inactive: -0.144,inactive: 0.091,inactive: -0.023,inactive: -0.056,inactive: 0.26,inactive: 0,inactive: -0.029,inactive: -0.017,inactive: 0.117,inactive: 0.04
DDX18 (UniProt Q9NVP1),inactive: 0.018,inactive: 0.029,inactive: -0.013,inactive: -0.05,inactive: -0.02,inactive: 0.012,inactive: -0.019,inactive: 0.032,inactive: 0.003,inactive: 0.037,inactive: -0.016,inactive: -0.047,inactive: 0.009,inactive: 0.027,inactive: 0.024,inactive: 0.043,inactive: 0.028,inactive: -0.001,inactive: -0.004,inactive: -0.014
DDX10 (UniProt Q13206),inactive: 0.028,inactive: 0.015,inactive: 0.205,inactive: 0.056,inactive: -0.024,inactive: -0.019,inactive: 0.009,inactive: 0,inactive: -0.053,inactive: -0.099,inactive: -0.007,inactive: -0.074,inactive: -0.002,inactive: 0.013,inactive: 0.045,inactive: 0.116,inactive: 0.052,inactive: -0.041,inactive: 0.033,inactive: -0.037
DDI2 isoform 3 (UniProt Q5TDH0),inactive: 0.015,inactive: 0.01,inactive: -0.029,inactive: 0.016,inactive: -0.003,inactive: -0.055,inactive: -0.015,inactive: 0.029,inactive: 0.005,inactive: -0.018,inactive: -0.007,inactive: 0.034,inactive: -0.013,inactive: 0.004,inactive: 0,inactive: 0.007,inactive: 0.016,inactive: 0.006,inactive: 0.004,inactive: -0.023
DDRGK1 (UniProt Q96HY6),inactive: 0.037,inactive: 0.003,inactive: -0.006,inactive: 0.061,inactive: -0.012,inactive: 0.04,inactive: 0.01,inactive: 0.002,inactive: 0.044,inactive: 0.034,inactive: 0.005,inactive: 0.076,inactive: -0.057,inactive: -0.011,inactive: 0.064,inactive: 0.026,inactive: 0.008,inactive: 0.009,inactive: 0.022,inactive: 0.006
DDX17 (UniProt Q92841),inactive: 0.011,inactive: -0.002,inactive: 0.001,inactive: -0.008,inactive: -0.008,inactive: 0.006,inactive: -0.042,inactive: 0.049,inactive: -0.004,inactive: 0.014,inactive: -0.021,inactive: -0.061,inactive: 0.015,inactive: -0.001,inactive: -0.019,inactive: -0.009,inactive: 0.006,inactive: 0.012,inactive: -0.008,inactive: -0.016
DCUN1D1 (UniProt Q96GG9),inactive: 0.001,inactive: -0.007,inactive: -0.018,inactive: 0.033,inactive: 0.01,inactive: 0.088,inactive: -0.034,inactive: 0.026,inactive: -0.01,inactive: 0.011,inactive: 0.008,inactive: -0.04,inactive: -0.021,inactive: -0.021,inactive: -0.074,inactive: -0.037,inactive: 0.039,inactive: 0.016,inactive: -0.015,inactive: -0.026
DDX31 (UniProt Q9H8H2),inactive: -0.007,inactive: 0.033,inactive: 0.09,inactive: 0.043,inactive: -0.04,inactive: -0.036,inactive: -0.02,inactive: 0.016,inactive: 0.023,inactive: -0.032,inactive: 0.027,inactive: -0.089,inactive: -0.015,inactive: 0.008,inactive: -0.015,inactive: 0.072,inactive: -0.034,inactive: 0.028,inactive: -0.034,inactive: -0.018

# Rewritten with tabs: entries from further up
Target	log2 fold change [1]	log2 fold change [2]	log2 fold change [3]	log2 fold change [4]	log2 fold change [5]	log2 fold change [6]	log2 fold change [7]	log2 fold change [8]	log2 fold change [9]	log2 fold change [10]	log2 fold change [11]	log2 fold change [12]	log2 fold change [13]	log2 fold change [14]	log2 fold change [15]	log2 fold change [16]	log2 fold change [17]	log2 fold change [18]	log2 fold change [19]	log2 fold change [20]
DDHD1 (UniProt Q8NEL9)	inactive: 0.071	inactive: 0.019	inactive: -0.005	inactive: 0.049	inactive: 0.056	inactive: 0.061	inactive: -0.032	inactive: 0.039	inactive: 0.077	inactive: 0.064	inactive: -0.046	inactive: -0.111	inactive: -0.05	inactive: -0.067	inactive: 0.001	inactive: 0.051	inactive: -0.059	inactive: 0.055	inactive: 0.016	inactive: -0.068
CYSTM1 (UniProt Q9H1C7)	inactive: -0.254	inactive: -0.001	inactive: -0.098	inactive: -0.142	inactive: -0.015	inactive: -0.07	inactive: -0.053	inactive: -0.008	inactive: -0.01	inactive: 0.045	inactive: -0.038	inactive: 0.127	inactive: -0.019	inactive: 0.066	inactive: 0.202	inactive: 0.161	inactive: -0.215	inactive: -0.057	inactive: 0.036	inactive: 0.156
DDX6 (UniProt P26196)	inactive: 0.017	inactive: 0.008	inactive: -0.019	inactive: 0.009	inactive: -0.017	inactive: 0.01	inactive: -0.05	inactive: 0.049	inactive: -0.001	inactive: -0.003	inactive: 0.006	inactive: -0.007	inactive: 0.014	inactive: -0.008	inactive: 0.02	inactive: 0.001	inactive: 0.005	inactive: -0.012	inactive: -0.005	inactive: 0.002

# — the supplement of paper PMC10849652
